These results are taken from paper doi:10.1101/354233.

Sequences of proteins named here, by UniProt entry; tags and fusion partners are left off.
UniProt O00506: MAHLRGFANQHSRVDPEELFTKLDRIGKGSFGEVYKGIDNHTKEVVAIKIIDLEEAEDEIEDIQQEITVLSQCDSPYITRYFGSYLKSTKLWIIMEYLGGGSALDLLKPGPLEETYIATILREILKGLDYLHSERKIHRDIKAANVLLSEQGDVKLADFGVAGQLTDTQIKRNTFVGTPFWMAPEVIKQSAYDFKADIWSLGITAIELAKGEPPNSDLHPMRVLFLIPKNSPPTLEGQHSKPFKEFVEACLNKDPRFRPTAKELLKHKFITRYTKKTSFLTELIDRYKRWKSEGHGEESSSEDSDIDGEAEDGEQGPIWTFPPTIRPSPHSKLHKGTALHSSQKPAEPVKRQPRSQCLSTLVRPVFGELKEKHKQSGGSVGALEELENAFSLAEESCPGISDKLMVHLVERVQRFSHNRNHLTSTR

The target of one assay is T1, HA-tagged LATS2 (UniProt Q9NRM7).
T1 sequence: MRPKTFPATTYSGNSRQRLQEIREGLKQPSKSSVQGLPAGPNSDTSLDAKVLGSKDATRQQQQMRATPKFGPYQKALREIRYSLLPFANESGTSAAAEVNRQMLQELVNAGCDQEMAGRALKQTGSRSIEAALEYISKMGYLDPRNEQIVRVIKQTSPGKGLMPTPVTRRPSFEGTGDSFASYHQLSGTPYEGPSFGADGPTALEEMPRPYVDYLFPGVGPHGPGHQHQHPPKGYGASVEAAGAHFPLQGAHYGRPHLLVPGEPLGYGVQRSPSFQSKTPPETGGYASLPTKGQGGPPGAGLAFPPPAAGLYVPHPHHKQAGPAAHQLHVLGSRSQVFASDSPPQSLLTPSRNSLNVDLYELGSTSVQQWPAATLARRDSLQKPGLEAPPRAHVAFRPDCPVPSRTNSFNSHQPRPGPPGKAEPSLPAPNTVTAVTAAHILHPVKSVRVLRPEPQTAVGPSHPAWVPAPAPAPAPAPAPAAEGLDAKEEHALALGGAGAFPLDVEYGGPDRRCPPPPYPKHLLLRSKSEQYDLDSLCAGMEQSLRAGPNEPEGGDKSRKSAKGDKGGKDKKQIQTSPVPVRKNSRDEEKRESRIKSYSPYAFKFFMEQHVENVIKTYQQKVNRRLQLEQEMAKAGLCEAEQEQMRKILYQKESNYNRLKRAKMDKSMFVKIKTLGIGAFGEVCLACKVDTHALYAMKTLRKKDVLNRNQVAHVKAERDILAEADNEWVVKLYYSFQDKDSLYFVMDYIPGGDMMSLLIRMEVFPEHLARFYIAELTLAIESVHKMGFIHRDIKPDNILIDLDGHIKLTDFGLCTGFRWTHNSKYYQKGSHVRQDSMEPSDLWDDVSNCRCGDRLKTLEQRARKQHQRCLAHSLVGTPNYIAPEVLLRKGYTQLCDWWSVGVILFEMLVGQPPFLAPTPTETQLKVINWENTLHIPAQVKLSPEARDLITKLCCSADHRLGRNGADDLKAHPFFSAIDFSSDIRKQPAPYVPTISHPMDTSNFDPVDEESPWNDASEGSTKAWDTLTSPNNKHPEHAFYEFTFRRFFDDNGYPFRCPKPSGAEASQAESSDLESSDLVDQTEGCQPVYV
The experiment in a line: co-IP.

The target of the next assay is T2, Myc-tagged LATS1 (UniProt O95835).
T2 sequence: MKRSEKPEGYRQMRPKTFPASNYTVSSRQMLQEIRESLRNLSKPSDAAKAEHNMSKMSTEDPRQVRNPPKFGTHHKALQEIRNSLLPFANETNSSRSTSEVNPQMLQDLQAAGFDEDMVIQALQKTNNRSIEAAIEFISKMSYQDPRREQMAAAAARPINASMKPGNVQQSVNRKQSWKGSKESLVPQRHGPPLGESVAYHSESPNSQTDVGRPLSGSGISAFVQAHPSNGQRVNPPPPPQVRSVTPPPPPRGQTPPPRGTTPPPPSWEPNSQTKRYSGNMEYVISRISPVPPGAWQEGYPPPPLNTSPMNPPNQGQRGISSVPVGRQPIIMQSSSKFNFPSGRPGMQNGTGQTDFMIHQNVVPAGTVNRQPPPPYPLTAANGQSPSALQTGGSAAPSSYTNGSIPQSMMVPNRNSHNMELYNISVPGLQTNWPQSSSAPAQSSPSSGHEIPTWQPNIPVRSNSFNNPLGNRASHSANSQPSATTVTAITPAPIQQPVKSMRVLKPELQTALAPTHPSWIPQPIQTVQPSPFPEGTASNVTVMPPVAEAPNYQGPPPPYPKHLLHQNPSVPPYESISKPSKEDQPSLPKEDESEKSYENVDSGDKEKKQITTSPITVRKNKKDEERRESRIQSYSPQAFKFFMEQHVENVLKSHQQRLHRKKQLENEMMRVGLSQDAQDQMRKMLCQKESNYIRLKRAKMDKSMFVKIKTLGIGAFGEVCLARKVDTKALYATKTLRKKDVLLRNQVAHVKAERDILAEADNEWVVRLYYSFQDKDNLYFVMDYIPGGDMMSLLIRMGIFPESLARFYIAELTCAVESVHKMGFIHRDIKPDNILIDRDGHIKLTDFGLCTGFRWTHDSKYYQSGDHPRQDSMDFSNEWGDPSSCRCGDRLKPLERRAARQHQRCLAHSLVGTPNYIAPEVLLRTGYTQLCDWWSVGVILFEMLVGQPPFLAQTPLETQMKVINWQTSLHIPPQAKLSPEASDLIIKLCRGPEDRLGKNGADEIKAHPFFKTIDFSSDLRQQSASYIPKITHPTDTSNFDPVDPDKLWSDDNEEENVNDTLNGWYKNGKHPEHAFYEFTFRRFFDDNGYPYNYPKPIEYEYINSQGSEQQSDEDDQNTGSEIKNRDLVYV
In words: co-IP.

Results are given in words; binding and its absence hold for the method and conditions named. In cells and extracts the contact can be indirect. Some binding calls cover weakened binding; strength is not graded here. Tags and fused reporters may be left off the sequences shown.

Regarding “FLAG-tagged STK25 (from UniProt O00506 1-426) (enzyme)”, the binding entry with HA-tagged LATS2 is listed as “binds”.

As for “endogenous STK25 (from UniProt O00506 1-426) (enzyme)”, the binding result with Myc-tagged LATS1 and in the assay with HA-tagged LATS2 was “binds” in each case.
